Experimental data: article PMC4480970
No constants are given. Whether binding was seen depends on the method and setting. Binding seen in cells or lysates may run through a third protein. Binding can be weak; no strength is given.

Amino acid sequences for entries named in this document (tags omitted). A change or cut given only in a name is not applied to a line headed by its entry.
UniProt O09106: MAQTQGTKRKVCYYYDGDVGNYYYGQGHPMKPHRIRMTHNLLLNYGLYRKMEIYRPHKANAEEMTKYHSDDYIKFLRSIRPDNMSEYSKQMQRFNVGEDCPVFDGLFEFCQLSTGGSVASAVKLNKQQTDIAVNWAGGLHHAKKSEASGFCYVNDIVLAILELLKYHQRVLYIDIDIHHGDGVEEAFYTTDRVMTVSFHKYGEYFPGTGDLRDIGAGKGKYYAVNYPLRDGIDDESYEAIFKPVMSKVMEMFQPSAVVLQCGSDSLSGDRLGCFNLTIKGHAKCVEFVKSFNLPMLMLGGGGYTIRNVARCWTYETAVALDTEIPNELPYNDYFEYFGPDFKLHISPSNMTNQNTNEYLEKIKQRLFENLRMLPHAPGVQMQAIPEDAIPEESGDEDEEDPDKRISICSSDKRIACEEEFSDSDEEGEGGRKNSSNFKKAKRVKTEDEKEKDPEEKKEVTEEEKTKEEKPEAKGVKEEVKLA
UniProt P70288: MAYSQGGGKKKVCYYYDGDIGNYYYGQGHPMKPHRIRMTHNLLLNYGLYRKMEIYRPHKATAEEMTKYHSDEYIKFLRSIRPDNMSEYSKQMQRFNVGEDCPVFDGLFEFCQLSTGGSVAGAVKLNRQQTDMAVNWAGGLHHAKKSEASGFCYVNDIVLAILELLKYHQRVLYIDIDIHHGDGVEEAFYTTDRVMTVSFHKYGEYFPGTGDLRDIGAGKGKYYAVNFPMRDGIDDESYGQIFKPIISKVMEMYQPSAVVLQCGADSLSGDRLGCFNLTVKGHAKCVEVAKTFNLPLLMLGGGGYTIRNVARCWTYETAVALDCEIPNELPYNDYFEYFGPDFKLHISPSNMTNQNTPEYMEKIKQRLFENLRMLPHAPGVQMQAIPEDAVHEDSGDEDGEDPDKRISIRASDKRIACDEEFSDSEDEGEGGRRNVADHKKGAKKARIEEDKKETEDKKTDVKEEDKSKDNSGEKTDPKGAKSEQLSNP
UniProt O88895: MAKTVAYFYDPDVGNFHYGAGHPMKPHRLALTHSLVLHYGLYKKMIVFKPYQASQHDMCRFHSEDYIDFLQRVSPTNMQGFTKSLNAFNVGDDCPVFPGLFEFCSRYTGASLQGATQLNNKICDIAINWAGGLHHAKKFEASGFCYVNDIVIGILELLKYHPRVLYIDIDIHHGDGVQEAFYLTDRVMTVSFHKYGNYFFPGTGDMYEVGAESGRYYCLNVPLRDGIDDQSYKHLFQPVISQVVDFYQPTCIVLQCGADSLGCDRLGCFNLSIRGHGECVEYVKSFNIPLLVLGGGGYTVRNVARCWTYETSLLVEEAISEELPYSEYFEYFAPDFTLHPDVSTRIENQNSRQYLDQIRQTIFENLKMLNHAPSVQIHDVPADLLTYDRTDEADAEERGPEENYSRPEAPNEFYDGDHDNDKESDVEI
UniProt Q99JB6: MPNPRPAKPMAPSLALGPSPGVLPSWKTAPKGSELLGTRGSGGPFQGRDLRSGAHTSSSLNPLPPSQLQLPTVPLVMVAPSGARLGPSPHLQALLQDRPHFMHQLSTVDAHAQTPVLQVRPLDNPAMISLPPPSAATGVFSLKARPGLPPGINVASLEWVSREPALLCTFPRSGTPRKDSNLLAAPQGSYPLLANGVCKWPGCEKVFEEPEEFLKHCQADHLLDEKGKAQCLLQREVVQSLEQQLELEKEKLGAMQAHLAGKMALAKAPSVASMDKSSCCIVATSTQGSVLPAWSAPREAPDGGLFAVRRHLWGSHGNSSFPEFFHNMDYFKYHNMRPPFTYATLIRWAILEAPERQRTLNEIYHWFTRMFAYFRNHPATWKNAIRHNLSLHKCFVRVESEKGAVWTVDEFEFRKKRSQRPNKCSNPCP

Assays:
Assay in all cases: co-IP; HA-Foxp3 or its deletion mutants and FLAG-HDAC1, 2 or 3 co-transfected in HEK293T; lysis in 0.4 M NaCl, 1% Triton X-100, diluted with hypotonic buffer; immunoprecipitation with anti-FLAG M2 agarose, 2 h at 4°C, washes with 0.5 M NaCl; blot with anti-HA
[1] = biological target: FLAG-tagged HDAC1 (UniProt O09106)
[2] = biological target: FLAG-tagged HDAC2 (UniProt P70288)
[3] = biological target: FLAG-tagged HDAC3 (UniProt O88895)

Measured: binding

HA-tagged Foxp3 with exon 3 alone deleted (from UniProt Q99JB6)
binds: all assays above
